As a reminder, the AC50 is the concentration giving half of the maximal activity seen.

Data on 16 compounds can be found in PubChem BioAssay AID1487 (National Center for Advancing Translational Sciences (NCATS), 2009).

This test can be described thus: qHTS Assay for Modulators of Lamin A Splicing. Particulars: HeLa LMNA splicing GFP/RFP minigene ratio, 48 h. A digest of the protocol:
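S3 HeLa cells stably expressing lamin A-EGFP splicing minigene plus DsRed2, 600 cells/well, 48 h compound exposure at 37C. Laser-scanning cytometry; analysed as GFP (500-530 nm)/RFP (575-640 nm) total intensity ratio; 0.5% DMSO vehicle.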
For orientation: In qHTS, concentration-response curves come from the screen itself.

The mark [1] stands for this setting: measured here: GFP splicing reporter channel.
The mark [2] stands for this setting: measured here: RFP viability control channel.

This is one part of the list. Further columns of the screen follow, without active or inactive calls. Most of these compounds were active or inconclusive in the main read-out, so they are no random draw. The note in brackets gives the kind of curve behind each potency; many fits are weak.

Take `Cc1nn(Cc2ccccc2)c(C)c1C(=O)OCC(=O)c1cc(C)n(CC(F)(F)F)c1C`: the AC50 under setting [1] was 28.2 µM [rising, single point].
In the case of `Nc1ncnc2c1nc(Cl)n2C1OC(CO)C(O)C1O` (stereo unspecified), the AC50 is, setting by setting: under setting [1], 0.398 µM [rising, full curve]; under setting [2], 0.891 µM [rising, full curve].
Consider `COc1ccccc1C(=O)OCCNC(=O)Cn1cnc2c1c(=O)n(C)c(=O)n2C`, for which the AC50 by setting is: under setting [1], 0.0398 µM [falling, full curve, poor fit]; under setting [2], 0.00447 µM [falling, full curve, poor fit].
On to `Cn1c(C(=O)NCCCN2CCCCC2)cc2sccc21`, for which the AC50 under setting [1] is 1.41 µM [rising, partial curve].
With `CCOc1ccc(OCC)c(NS(=O)(=O)c2c(C(=O)N3CCCCCC3)c(C)n(C)c2C)c1`, the AC50 was 6.31 µM [falling, partial curve, poor fit] under setting [1] and 3.16 µM [falling, partial curve, poor fit] under setting [2].
As for `Cc1ccc(NC(=O)N2CCN(c3nnc(C)c4c(C)n(-c5ccccc5)nc34)CC2)cc1Cl`, the AC50 under setting [1] was 1 µM [falling, partial curve, poor fit] and the AC50 under setting [2] is 0.224 µM [falling, full curve, poor fit].
For `CCOCCCn1c(SCC(=O)Nc2cccc(OC)c2)nc2ccccc2c1=O`, the AC50 under setting [2] is 1.78 µM [falling, full curve, poor fit].
On the same count and under the same terms, for `Nc1ccc(N2CCN(c3cccc(Cl)c3)CC2)cc1` the value was 8.91 µM [rising, partial curve].
As to `CN(C)C/C=C(/c1ccc(Br)cc1)c1cccnc1`, under setting [1], the AC50 was 5.62 µM [rising, single point].
Regarding `CCC(CC)=NNC(=O)c1ccccc1OCc1ccc(F)cc1`, the AC50 under setting [2] was 25.1 µM [rising, single point].
In the case of `O=C(Nc1cccc(S(=O)(=O)Nc2ccccc2Cl)c1)c1ccc(Cl)nc1`, the AC50 reads like this: under setting [1], 0.0316 µM [rising, full curve, poor fit]; under setting [2], 1.58 µM [rising, full curve].
Regarding `COC(=O)Nc1ccc(S(=O)(=O)N2CCCc3ccccc32)cc1`, the AC50 under setting [2] was 0.794 µM [rising, full curve].
On to `Cc1ccc(NC(=O)CN(C)C(=O)CSc2nc3ccccc3c(=O)n2Cc2ccco2)cc1`, for which, under setting [1], the AC50 is 31.6 µM [rising, single point].
With `Cc1cc(N)ccc1-n1c(C)ccc1C`, under setting [2], the AC50 is 3.98 µM [falling, partial curve].
Consider `CCN(c1ccc(Cl)cc1)S(=O)(=O)c1nnc(NC(=O)C2CCCCC2)s1`, for which the AC50 under setting [1] was 0.00447 µM [falling, full curve, poor fit].
`CNc1oc(Cc2ccccc2)nc1S(=O)(=O)c1ccc(Cl)cc1`: the AC50 under setting [2] is 1.41 µM [falling, partial curve].
